# The list shows a part of the results.
# System: T1, CTL2-GFP (C. trachomatis L2/434/Bu, GFP-expressing)
# T1 construct: L2/434/Bu, GFP-expressing
# Set-up: species or system HeLa; Intracellular C. trachomatis growth in HeLa cells, bulk GFP fluorescence relative to DMSO
# Conditions: bulk GFP, single well; 28.5 h, 10 µM; inhibitor
row,SMILES,% of control remaining [%]
1,CCCNC(=O)c1sc(Nc2ccc(Cl)cn2)nc1C [CBK287850],123.466
2,Cc1ccc(-c2cc(C(=O)O)c3cc4c(C(=O)O)cc(-c5ccc(C)o5)nc4cc3n2)o1 [CBK264342],131.142
3,COc1ccc(-c2cn3cccnc3n2)cc1NC(=O)c1ccccc1 [CBK287296],100
4,C/C(=N\NC(=O)C(C)Sc1ncccn1)C(C)(C)C (centres unmarked) [CBK020243],135.738
5,O=C(Cc1ccn[nH]1)N1CC(O)CC1c1cc(F)ccc1F (centres unmarked) [CBK304872],98.6095
6,COc1ccc(CCNc2ncnc3c2cnn3-c2ccc(C)cc2C)cc1OC [CBK294448],145.303
7,Cc1ccc(CNC(=O)C2(c3ccccc3)CCCC2)cc1F [CBK161529],139.115
8,OCC(CO)(CO)NCc1ccc(-c2ccccc2)cc1 [CBK268742C],168.939
9,O=C(Nc1ccc(-n2cc(Cl)cn2)cc1)c1ccncc1 [CBK270249],113.964
10,CCNC(=O)C(C)NC(=O)c1cnn(-c2ccc(Br)cc2)c1C (centres unmarked) [CBK305021],131.378
11,OCCn1ncc2c(NCc3ccc(-n4cccn4)nc3)ncnc21 [CBK306326],100.573
12,COc1ccc(C(=O)Nc2ccccc2N2CCNCC2)cc1 [CBK029447T],103.796
13,C=C(C)Cn1c(SCCC(=O)OC)nc2sc3c(c2c1=O)CC(C)(C)OC3 [CBK026634],96.0031
14,CC(C)[C@H](CO)Nc1nc(-c2ccco2)cn2ccnc12 [CBK066316],101.9
15,c1ccc(Cn2cc(-c3cncn3CCCN3CCCCC3)cn2)cc1 [CBK281491],137.378
16,Cn1c(SCC(=O)NC(c2ccccc2)c2ccccc2)nnc1-c1ccncc1 [CBK266622],172.206
17,COc1cccc(OC)c1OCCN1CCNCC1 [CBK265089G],126.136
18,CC1CCCN(C(=O)C2C3CCC4(CC(=O)c5ccccc5O4)C32)C1 (centres unmarked) [CBK284932],62.0848
19,O=C(c1ccccc1)N1CCN(C(=O)c2ccco2)CC1 [CBK068314],110.646
20,COc1ccccc1CN(Cc1cccs1)C(=O)Cn1cnnn1 [CBK305866],106.211
21,COc1ccc([C@]23CN(C)C[C@H]2CCN(C(=O)Nc2cccc(Br)c2)C3)cc1OC [CBK075106T],94.3274
22,C=CCN1CCC(C(=O)NC(=O)NCC2COc3ccccc3O2)CC1 (centres unmarked) [CBK051099],111.608
23,CC(NC(=O)CC1CCN(Cc2cccc(C(F)(F)F)c2)CC1)c1nc2ccccc2[nH]1 (centres unmarked) [CBK285952],117.822
24,O=C(O)c1ccc(-c2c(Cl)cc([N+](=O)[O-])cc2Cl)o1 [CBK026623],110.55
25,NS(=O)(=O)c1ccc(NC(=O)c2ccc(COc3ccccc3)o2)cc1 [CBK267915],97.5574
26,COc1c(O)ccc(/C=N\NC(=O)C2COc3cc4ccccc4cc3O2)c1[N+](=O)[O-] (centres unmarked) [CBK262836],117.031
27,COc1ccc([C@@]23CC[C@@H](NC(=O)c4ccc(F)c(C(F)(F)F)c4)C[C@@H]2N(C)CC3)cc1OC [CBK074967T],104.137

row,SMILES,% of control remaining [%]
1,Cc1nc(NC(=O)CCN2C(=O)COc3ccccc32)sc1-c1n[nH]c(=S)n1C [CBK295362],117.04
2,Cn1c(=O)n(CC(=O)O)c(=O)c2c1nc(Br)n2Cc1ccccc1 [CBK026617],105.429
3,COc1cc(N2CCCNCC2)ncn1 [CBK085485C],127.573
4,O=C(CSc1nnc(-c2cc(Br)ccc2O)[nH]1)NCCc1ccccc1 [CBK269007],118.72
5,Cc1cc(C)n(S(=O)(=O)c2cc(C(=O)O)c(Cl)cc2Cl)n1 [CBK113170],118.623
6,Cc1cc(NS(=O)(=O)c2cccc(Cl)c2C)n[nH]1 [CBK024382],109.875
7,O=C(NCc1ccccc1)N1CCC(n2cnc3cccnc32)CC1 [CBK282281],97.8739
8,CCn1cc(C(=O)O)c(=O)c2cnc(N3CCN(C(=S)Nc4ccc5c(c4)OCCO5)CC3)nc21 [CBK267895],118.915
9,CC1CCc2nn(CCNC(=O)Cc3cccs3)c(=O)cc2C1 (centres unmarked) [CBK284465],111.076
10,O=C1OCCN1CCN1CCCN(Cc2ccc(F)cc2)CC1 [CBK304023],152.198
11,c1coc(-c2nc3cnccn3c2NC2CCCCC2)c1 [CBK283498],132.861
12,O=C(CSc1ncn(-c2ccccc2)n1)Nc1cc(Cl)cc(Cl)c1 [CBK268261],111.79
13,O=C(Cc1ccc([N+](=O)[O-])cc1)Nc1ccc(O)cc1C(=O)O [CBK265977],155.775
14,Cc1nc(N/N=C/c2ccc3c(c2)OCO3)sc1C [CBK263098],94.0367
15,CCOc1cc(CNCc2ccc(C(=O)O)cc2)ccc1OC [CBK270029C],151.779
16,Cc1nc(NC(=O)c2c(F)cccc2F)sc1C [CBK300495],139.787
17,C=CCC1(CC=C)CCN1C(=O)Cc1c(C)nc(SC)[nH]c1=O [CBK282661],123.731
18,COc1cccc2c1ncc1c(=O)nc(N)sc12 [CBK291241],144.239
19,COc1ccccc1C(NC(=O)C1CCN(CCn2cnc3c2c(=O)n(C)c(=O)n3C)CC1)c1ccccn1 (centres unmarked) [CBK147939],100
20,O=C(C1CC1)N1CCC2(CC1)Nc1ccccc1-n1cccc12 [CBK284011],132.632
21,Cc1csc2ncc(C(=O)Nc3ccc(F)c(Cl)c3)c(=O)n12 [CBK287460],99.3895
22,Cc1nc2ccc(C(=O)N3CCN(C(=O)c4ccc(Cl)cc4)CC3)cc2nc1C [CBK296647],162.583
23,CCCCOc1ccc(-c2nc(SCC(=O)O)c3c4c(sc3n2)COC(C)(C)C4)cc1 [CBK267716],110.206
24,CNC(=O)C(NC(=S)NC(=O)c1ccc(F)cc1)C(C)(C)C (centres unmarked) [CBK021945],106.982
25,CCNC(=O)C1CCN(C(=O)c2coc(COc3cccc(F)c3)n2)C1 (centres unmarked) [CBK307466],109.943
26,O=C(COc1cccc(Cl)c1)N/N=C\c1ccc(C(=O)O)cc1 [CBK262293],102.926
27,COc1cccc2cc(C(=O)C3=C(O)C(=O)N(CCCN4CCOCC4)C3c3ccc(C)cc3)oc12 (centres unmarked) [CBK266420],96.8374

row,SMILES,% of control remaining [%]
1,CCOC(=O)c1[nH]c2ccccc2c1NS(=O)(=O)c1cccc(Cl)c1C [CBK047423],99.2718
2,COc1ccc2cc(/C=N/NC(=O)CN3CCCCC3)c(Cl)nc2c1 [CBK018181],130.879
3,Cc1ccccc1C(c1cnccn1)N(C)C(=O)C1CCN(C(=O)c2ccccc2)CC1 (centres unmarked) [CBK060208],109.507
4,CC(C)CSc1nnc(-c2ccccc2F)n1CC(C)C [CBK200091],120.302
5,O=C(NC(=S)Nc1ccccc1)c1cncc(Br)c1 [CBK092040],138.316
6,COCCCN(Cc1ccccn1)Cc1cccc(F)c1F [CBK282947],130.766
7,CC(C)Nc1nccnc1Sc1cccc(C(=O)O)c1 [CBK093581],92.4323
8,COc1ccc(NC(=O)c2cnn3c2NC(C(=O)O)=CC3c2ccccc2)cc1 (centres unmarked) [CBK287240],129.095
9,Cc1nc2ncccn2c1-c1csc(Nc2ccc(S(N)(=O)=O)cc2)n1 [CBK263294B],124.692
10,Cn1cnnc1SC1c2cccc3cccc(c23)C1NS(=O)(=O)c1ccc(Cl)cc1 (centres unmarked) [CBK264707],114.213
11,Cc1cccc(CN2CCC(NC(=O)NCc3ccn(C)c3)CC2)c1 [CBK305259],152.133
12,COc1ccc(OCC(=O)N/N=C/c2ccc([N+](=O)[O-])s2)c(I)c1 [CBK261374],100.395
13,O=C1NCC(C2CCN(Cc3ccccc3)CC2)Oc2ccccc21 (centres unmarked) [CBK282314],148.735
14,Cc1ccc(OCC(O)CN2CCC(C(N)=O)CC2)cc1C (centres unmarked) [CBK057100],121.191
15,CSCCN1CCC(Oc2nccnc2OCc2cccnc2)CC1 [CBK083173],127.108
16,Cc1cccc2c3c([nH]c12)C1(CCN(CC2CC2)C1)NCC3 (centres unmarked) [CBK039520],101.245
17,CCc1c(C)nc2c(N3CCOC3=O)cccc2c1SCCC(=O)O [CBK159595T],121.43
18,CCOC(=O)c1[nH]c(C)c(/C=C/C2=CCN(C)CC2)c1C [CBK283761],156.761
19,Cc1[nH]c(=O)[nH]c(=S)c1C(=O)Nc1ccc2[nH]c(C(F)(F)F)nc2c1 [CBK115494],103.314
20,COC(=O)c1cccc(N(C)S(=O)(=O)c2sc3ccc(Cl)cc3c2C)c1 [CBK160390],122.879
21,CCOC(=O)CCNC(=O)N(CC)Cc1ccccc1 [CBK155228],104.061
22,CN1C=NC2C1C(=O)N(CCn1c(=O)c3c(ncn3C)n(C)c1=O)C(=O)N2C (centres unmarked) [CBK268678],88.3803
23,CN1CCC(N(C)C(=O)NC(c2ccccc2)c2ccccc2)C1 (centres unmarked) [CBK156000],94.5358
24,CCOC(=O)c1sc(-c2ccccc2)nc1O [CBK074298],85.5452
25,FC(F)(F)c1nc2ccccc2nc1Sc1ccncc1 [CBK093773],100.226
26,O=C(CN1CCCCCC1=O)Nc1nc(-c2ccccc2F)cs1 [CBK281408],99.0316

# A few values from the list:
# Under % of control remaining [%], Cc1cccc2c3c([nH]c12)C1(CCN(CC2CC2)C1)NCC3 (centres unmarked) [CBK039520] has 101.245
# Under % of control remaining [%], Cc1[nH]c(=O)[nH]c(=S)c1C(=O)Nc1ccc2[nH]c(C(F)(F)F)nc2c1 [CBK115494] has 103.314
# Under % of control remaining [%], COc1ccc(OCC(=O)N/N=C/c2ccc([N+](=O)[O-])s2)c(I)c1 [CBK261374] has 100.395
# Under % of control remaining [%], CCOC(=O)c1[nH]c(C)c(/C=C/C2=CCN(C)CC2)c1C [CBK283761] has 156.761

# Source: PMC12040169 (PLOS Biology, 2025)
